Data: paper PMC11941830
Results are given in words; binding and its absence hold for the method and conditions named. For some assays here: Binding seen in cells or lysates may run through a third protein. Some entries that bind do so weakly or less than the wild type. Sequences can lack the tags named with a protein.

By UniProt entry, the sequences of proteins in these tests, tags left out. Residues count along the entry.
UniProt P02787, residues 20-698: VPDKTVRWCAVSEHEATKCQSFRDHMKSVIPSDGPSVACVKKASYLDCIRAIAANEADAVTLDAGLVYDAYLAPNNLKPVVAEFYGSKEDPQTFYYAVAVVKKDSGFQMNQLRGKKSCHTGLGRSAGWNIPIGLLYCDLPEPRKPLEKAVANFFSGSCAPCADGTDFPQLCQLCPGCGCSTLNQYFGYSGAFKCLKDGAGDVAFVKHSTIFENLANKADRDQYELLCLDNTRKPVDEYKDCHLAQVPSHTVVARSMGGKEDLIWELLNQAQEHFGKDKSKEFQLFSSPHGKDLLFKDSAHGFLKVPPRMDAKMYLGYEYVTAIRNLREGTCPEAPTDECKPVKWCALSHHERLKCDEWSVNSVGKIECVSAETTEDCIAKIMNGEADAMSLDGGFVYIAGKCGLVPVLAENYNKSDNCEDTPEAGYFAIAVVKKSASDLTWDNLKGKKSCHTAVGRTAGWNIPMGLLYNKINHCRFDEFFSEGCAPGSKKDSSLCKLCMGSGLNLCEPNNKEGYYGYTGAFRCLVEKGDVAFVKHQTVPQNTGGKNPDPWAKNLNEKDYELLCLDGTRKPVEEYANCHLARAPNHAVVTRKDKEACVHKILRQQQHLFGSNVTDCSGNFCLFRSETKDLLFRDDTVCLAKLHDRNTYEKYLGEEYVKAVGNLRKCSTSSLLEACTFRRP

How the values were obtained:
[1] = molecular target: T1, FLAG-tagged secreted extracellular domain of HephD568H (residues 1-1107) (human) (UniProt Q9BQS7); experiment: pull-down; FLAG-tagged sec-Heph purified from HEK293T culture medium on FLAG-trap resin; equal amounts of each affinity resin incubated with apo-Tfn or holo-Tfn; pulled-down Tfn quantified by Western blot; both purified
T1 sequence: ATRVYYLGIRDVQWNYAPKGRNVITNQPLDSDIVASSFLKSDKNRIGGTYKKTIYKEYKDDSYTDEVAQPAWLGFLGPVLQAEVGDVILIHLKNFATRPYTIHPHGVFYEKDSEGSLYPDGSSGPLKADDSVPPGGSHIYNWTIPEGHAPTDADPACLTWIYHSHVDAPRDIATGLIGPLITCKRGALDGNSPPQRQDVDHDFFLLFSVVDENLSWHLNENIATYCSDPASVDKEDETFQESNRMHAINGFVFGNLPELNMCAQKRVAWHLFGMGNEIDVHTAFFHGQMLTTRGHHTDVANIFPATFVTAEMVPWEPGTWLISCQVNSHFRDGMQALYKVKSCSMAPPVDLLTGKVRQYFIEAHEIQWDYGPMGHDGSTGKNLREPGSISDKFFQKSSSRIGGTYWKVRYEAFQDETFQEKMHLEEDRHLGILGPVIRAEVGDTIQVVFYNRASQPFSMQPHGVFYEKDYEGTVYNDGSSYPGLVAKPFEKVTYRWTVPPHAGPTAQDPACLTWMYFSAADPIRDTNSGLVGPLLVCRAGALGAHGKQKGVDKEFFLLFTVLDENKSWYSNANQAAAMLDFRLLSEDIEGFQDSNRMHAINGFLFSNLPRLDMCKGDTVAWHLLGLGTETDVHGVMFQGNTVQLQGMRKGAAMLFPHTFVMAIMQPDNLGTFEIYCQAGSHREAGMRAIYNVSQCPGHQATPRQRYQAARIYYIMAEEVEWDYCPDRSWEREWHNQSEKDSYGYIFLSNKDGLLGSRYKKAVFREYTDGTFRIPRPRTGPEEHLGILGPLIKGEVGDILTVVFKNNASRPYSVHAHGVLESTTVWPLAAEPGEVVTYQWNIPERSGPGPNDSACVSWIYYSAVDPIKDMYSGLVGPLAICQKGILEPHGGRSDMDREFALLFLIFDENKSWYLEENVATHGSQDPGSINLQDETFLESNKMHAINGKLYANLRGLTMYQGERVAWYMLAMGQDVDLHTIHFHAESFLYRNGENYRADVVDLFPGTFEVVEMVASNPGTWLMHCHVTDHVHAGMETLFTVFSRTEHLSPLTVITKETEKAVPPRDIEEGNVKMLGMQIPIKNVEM

[2] = molecular target: T2, Full-length human hephaestin variant D568H with a C-terminal FLAG-tag (human) (UniProt Q9BQS7); experiment: co-IP; HEK293T expressing full-length Heph incubated for 30 min with 0.25 µM apo-Tfn or holo-Tfn in serum-free medium; DSP cross-linking before lysis; DYKDDDDK Fab-Trap immunoprecipitation; anti-Tfn blot; only the binder purified
T2 sequence: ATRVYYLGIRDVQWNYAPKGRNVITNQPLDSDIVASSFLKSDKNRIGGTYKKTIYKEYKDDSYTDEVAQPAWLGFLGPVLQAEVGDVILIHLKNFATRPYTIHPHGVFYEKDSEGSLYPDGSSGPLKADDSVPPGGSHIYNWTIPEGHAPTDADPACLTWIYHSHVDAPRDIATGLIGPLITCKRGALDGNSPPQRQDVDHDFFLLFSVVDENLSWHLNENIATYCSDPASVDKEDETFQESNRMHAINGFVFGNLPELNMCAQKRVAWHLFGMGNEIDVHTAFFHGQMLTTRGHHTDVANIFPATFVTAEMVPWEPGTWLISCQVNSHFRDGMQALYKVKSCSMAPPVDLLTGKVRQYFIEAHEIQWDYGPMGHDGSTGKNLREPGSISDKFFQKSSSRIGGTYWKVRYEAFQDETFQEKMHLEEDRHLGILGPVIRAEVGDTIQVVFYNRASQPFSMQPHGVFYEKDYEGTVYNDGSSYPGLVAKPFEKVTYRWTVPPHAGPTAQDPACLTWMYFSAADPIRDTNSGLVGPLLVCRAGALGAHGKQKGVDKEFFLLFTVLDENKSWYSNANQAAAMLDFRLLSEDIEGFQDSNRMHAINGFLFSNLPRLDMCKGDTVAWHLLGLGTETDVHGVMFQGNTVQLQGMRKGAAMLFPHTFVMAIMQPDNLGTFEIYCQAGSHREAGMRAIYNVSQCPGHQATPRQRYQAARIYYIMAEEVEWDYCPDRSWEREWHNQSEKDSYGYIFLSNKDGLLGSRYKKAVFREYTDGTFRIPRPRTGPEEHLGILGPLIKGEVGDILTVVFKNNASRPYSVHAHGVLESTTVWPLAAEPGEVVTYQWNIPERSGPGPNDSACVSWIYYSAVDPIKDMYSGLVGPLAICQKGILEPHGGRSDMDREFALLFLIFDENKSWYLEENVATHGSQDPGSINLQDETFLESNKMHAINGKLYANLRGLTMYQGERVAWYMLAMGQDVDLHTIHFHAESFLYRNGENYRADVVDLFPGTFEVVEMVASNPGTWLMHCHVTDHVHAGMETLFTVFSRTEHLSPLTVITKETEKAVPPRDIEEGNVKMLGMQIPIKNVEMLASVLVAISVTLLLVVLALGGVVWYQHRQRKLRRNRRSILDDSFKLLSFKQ

binding [1]: binds
binding [2]: binds weakly
Substance: Apo-transferrin (iron-depleted transferrin) (from UniProt P02787 20-698)
